Consider 42 sequences from PMC7819943, “Rice protein-binding microarrays: a tool to detect cis-acting elements near promoter regions in rice”.

By UniProt entry, the sequences of proteins in these tests, tags left out.
UniProt Q0JBA9, entry or part of it: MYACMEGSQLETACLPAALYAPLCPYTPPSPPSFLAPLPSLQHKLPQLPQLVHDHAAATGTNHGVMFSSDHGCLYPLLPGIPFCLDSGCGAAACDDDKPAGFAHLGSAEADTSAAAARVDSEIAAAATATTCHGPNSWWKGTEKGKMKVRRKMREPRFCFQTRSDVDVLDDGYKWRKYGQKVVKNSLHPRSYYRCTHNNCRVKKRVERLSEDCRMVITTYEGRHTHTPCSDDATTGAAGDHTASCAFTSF

This is one part of the list.

The target of the assay is OsWRKY34 (Oryza sativa, UniProt Q0JBA9 1-250). Kind of assay: protein-binding microarray (RPBM); PBS, 2% BSA, 51.3 ng/ul salmon testes DNA, 50 uM zinc acetate, 200 nM TF, 25 C, 1 h; high values mean tight binding. To be noted: protein: recombinant; tags: N-terminal polyhistidine and DsRed monomer fusion (pET32a); label: CyDye5-dUTP incorporated in the synthesized complementary strand; 3' TTTTT single-stranded linker to array surface; dsDNA, one strand shown. The procedure, abridged:
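Using Ni–NTA, transcription factors fused N-terminally to polyhistidine and DsRed were purified after expression in E. coli BL21-CodonPlus. These were incubated at 200 nM with a blocked, double-stranded custom Agilent array for 1 h at 25 °C in a buffer containing 50 µM zinc acetate, and the array was washed. The binding signal is per-feature fluorescence intensity (arbitrary units) on an Axon 4000B scanner.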
On to “AATAAGTTCATCTGAGGTCCCTTAATTTGTCACCGAATCCCGGAGTCACCTAGTGCAG”, for which the binding signal was 8900 fluorescence intensity (a.u.). Then “TTCCATCTGCTTTTTTTCGTTCTTTTTTCCATCCATCTTTCGGAGTCACCTAGTGCAG”, with 8530 fluorescence intensity (a.u.); and “TGAATCCACCATTCTGCTCGCCTGCATCATTGGGAGCTCTCGGAGTCACCTAGTGCAG”, with 9780 fluorescence intensity (a.u.). Then “CCACATCACCCACCGCATTCAGCATCATCAGCAGCCGGAACGGAGTCACCTAGTGCAG”, with 9290 fluorescence intensity (a.u.); and “CGTCGCCTCCGGATTGGTTTCGCGGCGGCCGGCCGTGTCTCGGAGTCACCTAGTGCAG”, with 8040 fluorescence intensity (a.u.).

As to “CTCACTCTCTCACTCTGTCTCCTCTCTCATTATCCTCTCGCGGAGTCACCTAGTGCAG”, the binding signal was 8370 fluorescence intensity (a.u.). In the case of “CCTCCTCCACTTCTACCACTGCCATAATAATACCATCACCCGGAGTCACCTAGTGCAG” it was 8830 fluorescence intensity (a.u.); in that of “GTTTTGACCCCGGTTTTGTCCCACGTGGCGGCTGAGTCAGCGGAGTCACCTAGTGCAG”, 8360 fluorescence intensity (a.u.); in that of “GGTTGGGGTGTGCTCCATGCTTCGCGGATTGCTGGCTCTGCGGAGTCACCTAGTGCAG”, 9260 fluorescence intensity (a.u.). “TTCAAGCTTTGAATTATTTATTTGTTTGTTTGACTTAAAACGGAGTCACCTAGTGCAG”: the binding signal is 9310 fluorescence intensity (a.u.). Then “TCTTCTCTCCGCTCTATTTTTTTCATCCTATCGATTTTGCCGGAGTCACCTAGTGCAG”, with 8740 fluorescence intensity (a.u.); and “TCATACATGCATCCATTTCGCTAATTAATTTGTTCCCTTACGGAGTCACCTAGTGCAG”, with 13400 fluorescence intensity (a.u.). Turning to “ACTTCACCGGTTTCCGGCGTCCGGCGCGGCGCCTGCAGAACGGAGTCACCTAGTGCAG”, the binding signal is 9530 fluorescence intensity (a.u.).

With “TATCTGCTTGTACCCTTATCATTATCTTGAGCATTTCATACGGAGTCACCTAGTGCAG”, the binding signal is 12600 fluorescence intensity (a.u.). “TAATTGATTTCTCTGAATGGTCTAATGACTGCTTTACTCTCGGAGTCACCTAGTGCAG”: the binding signal was 9230 fluorescence intensity (a.u.).

For “TCTTATTGCTGGCTCTGTTGCCCGATCATTGGCATGCATACGGAGTCACCTAGTGCAG”, the binding signal is 9850 fluorescence intensity (a.u.). In the case of “TCTCTCTCTCTCTCTCGGTTCCGTTTTCTAGTAACTCCATCGGAGTCACCTAGTGCAG” it was 8720 fluorescence intensity (a.u.). For “TCCTCACCGCACGCCACACACTGACTCCATACGCACAAGGCGGAGTCACCTAGTGCAG”, the binding signal was 11700 fluorescence intensity (a.u.). In the case of “ACCCAACCTAGCACTACCCACTGCTTCGCCTTTTATACCCCGGAGTCACCTAGTGCAG” it was 13500 fluorescence intensity (a.u.); in that of “GACAGACCTCACCTTGCTTCGCCGCTCCACTGCCCATGCCCGGAGTCACCTAGTGCAG”, 8030 fluorescence intensity (a.u.); in that of “GTCGTCTGGCTCAGGCTAATTCCGCGCCTGAGTTACATCACGGAGTCACCTAGTGCAG”, 8790 fluorescence intensity (a.u.). As to “ATCCGTCCCGTCTCCTCGCCCGCCGCCCTCGACTCGCGTCCGGAGTCACCTAGTGCAG”, the binding signal was 8980 fluorescence intensity (a.u.).

“GCGCTGTTTTGGTAAAACCTACCATGATCGGTTTTCAGTTCGGAGTCACCTAGTGCAG”: the binding signal is 8830 fluorescence intensity (a.u.). In the case of “AAGCCCATCTTTTTCTCCTTTTTCTTTTCTTTTCTTTTTTCGGAGTCACCTAGTGCAG” it was 12400 fluorescence intensity (a.u.).

Regarding “CGTGTTGGGAGGGAAGGGGTCTGAACACCTAGCTAGGTTCCGGAGTCACCTAGTGCAG”, the binding signal is 8180 fluorescence intensity (a.u.). Then “GTGAGAGAGGCGGCCGGCGCAAGATGGGGAAGGGGATAGGCGGAGTCACCTAGTGCAG”, with 9090 fluorescence intensity (a.u.); and “CCTTTTTTTTTTTTTTGCTTCTGGTCAAACAAAAACGCTACGGAGTCACCTAGTGCAG”, with 9160 fluorescence intensity (a.u.); and “ACCTCTGTTTTTAATAGATGACGTGTCGTTGACTTTTTATCGGAGTCACCTAGTGCAG”, with 13300 fluorescence intensity (a.u.). “GCTTGCACTCTATCTCTAGCTACTTGTTGACTGGATTGGACGGAGTCACCTAGTGCAG”: the binding signal is 8230 fluorescence intensity (a.u.). With “AGGAATAATTGCAAACCTTGTCATTGGCATGTTTTTTCTCCGGAGTCACCTAGTGCAG”, the binding signal is 8110 fluorescence intensity (a.u.). In the case of “GATTCTTTCCTTGCAGGCTTCCTTTCCTAGCCAATCAGCCCGGAGTCACCTAGTGCAG” it was 9740 fluorescence intensity (a.u.); in that of “TTCTACTTTTGGATGGGGTTTTTTTACCTTACCCGACCGACGGAGTCACCTAGTGCAG”, 8090 fluorescence intensity (a.u.); in that of “TTTATTCTCACTGCTACACGCCTCTTTCCTCTCTCTCTCTCGGAGTCACCTAGTGCAG”, 8800 fluorescence intensity (a.u.). Then “AGGCCTCTCTCTCTCTCTCTCTCTCTCTCTCTCTCTCTCTCGGAGTCACCTAGTGCAG”, with 9400 fluorescence intensity (a.u.). With “CTAGTACGTTTCTACTCTACCCGCCGCTCCGCGGCCGCGCCGGAGTCACCTAGTGCAG”, the binding signal is 8370 fluorescence intensity (a.u.).

On to “TTTGGTAAGTTGGGGATGTGTTGTATCCGGTTTTATGAACCGGAGTCACCTAGTGCAG”, for which the binding signal is 8050 fluorescence intensity (a.u.). For “ATGCAAATGTGCTTTCGGTTCTGCCTGTTGAAATTCTTCCCGGAGTCACCTAGTGCAG”, the binding signal was 8820 fluorescence intensity (a.u.). Consider “AATTGAAGTCTGTAGCAGTTGTTTCTGTTCCTTTGTTTTCCGGAGTCACCTAGTGCAG”, for which the binding signal is 9810 fluorescence intensity (a.u.). In the case of “AAGTGCTCCTACCTGCTGATCTGATCTGATCACTTTCTTGCGGAGTCACCTAGTGCAG” it was 9350 fluorescence intensity (a.u.); in that of “TTCTGTTCTTATGCGTCGTCCTATAAACATGATTTAAATTCGGAGTCACCTAGTGCAG”, 9230 fluorescence intensity (a.u.). Then “ATTTTGACTACCGATAGTTTGCATTGATATCTCTTATACACGGAGTCACCTAGTGCAG”, with 9550 fluorescence intensity (a.u.); and “AATAGGGTGTTTCCAAAATATGTGGGTTTTTTTGTTGCAACGGAGTCACCTAGTGCAG”, with 9030 fluorescence intensity (a.u.).
